Reference: the supplement of paper PMC10849652
The other results are listed elsewhere or left out.

The chains behind the UniProt entries cited, without tags or fusion partners. Where a name states a change or a piece, a line headed by the entry shows the natural chain unless it says otherwise.
UniProt Q07973: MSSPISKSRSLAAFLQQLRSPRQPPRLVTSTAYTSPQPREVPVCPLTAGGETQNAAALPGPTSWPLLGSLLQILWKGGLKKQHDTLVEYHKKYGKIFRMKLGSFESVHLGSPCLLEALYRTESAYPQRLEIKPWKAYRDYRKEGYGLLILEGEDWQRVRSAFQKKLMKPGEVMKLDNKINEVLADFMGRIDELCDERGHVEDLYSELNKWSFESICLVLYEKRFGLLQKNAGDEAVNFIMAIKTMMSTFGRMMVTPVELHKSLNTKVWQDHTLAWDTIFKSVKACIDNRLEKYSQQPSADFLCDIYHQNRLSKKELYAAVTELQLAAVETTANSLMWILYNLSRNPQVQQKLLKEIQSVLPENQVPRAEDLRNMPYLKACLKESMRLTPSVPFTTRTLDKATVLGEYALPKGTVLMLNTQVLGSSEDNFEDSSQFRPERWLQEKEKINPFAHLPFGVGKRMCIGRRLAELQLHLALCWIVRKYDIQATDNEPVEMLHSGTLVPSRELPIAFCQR
UniProt Q8NCG7: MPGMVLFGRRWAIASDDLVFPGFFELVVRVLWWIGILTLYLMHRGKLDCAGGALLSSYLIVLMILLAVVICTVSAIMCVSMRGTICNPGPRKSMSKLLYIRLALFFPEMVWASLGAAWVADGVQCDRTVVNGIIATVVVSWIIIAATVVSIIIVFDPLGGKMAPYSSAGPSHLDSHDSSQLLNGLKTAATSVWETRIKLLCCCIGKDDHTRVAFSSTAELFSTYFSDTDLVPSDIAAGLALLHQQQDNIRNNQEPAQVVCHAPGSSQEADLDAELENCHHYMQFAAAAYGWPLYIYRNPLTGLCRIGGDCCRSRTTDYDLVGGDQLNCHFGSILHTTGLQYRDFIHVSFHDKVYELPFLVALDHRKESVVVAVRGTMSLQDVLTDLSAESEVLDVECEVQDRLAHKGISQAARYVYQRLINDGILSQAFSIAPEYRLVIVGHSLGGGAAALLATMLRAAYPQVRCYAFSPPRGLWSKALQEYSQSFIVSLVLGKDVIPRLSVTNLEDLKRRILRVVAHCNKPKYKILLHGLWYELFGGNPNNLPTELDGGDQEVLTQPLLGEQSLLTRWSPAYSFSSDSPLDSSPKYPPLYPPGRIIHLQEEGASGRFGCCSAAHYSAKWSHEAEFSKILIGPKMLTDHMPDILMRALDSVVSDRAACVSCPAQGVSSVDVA
UniProt Q16531, whole entry, looked up: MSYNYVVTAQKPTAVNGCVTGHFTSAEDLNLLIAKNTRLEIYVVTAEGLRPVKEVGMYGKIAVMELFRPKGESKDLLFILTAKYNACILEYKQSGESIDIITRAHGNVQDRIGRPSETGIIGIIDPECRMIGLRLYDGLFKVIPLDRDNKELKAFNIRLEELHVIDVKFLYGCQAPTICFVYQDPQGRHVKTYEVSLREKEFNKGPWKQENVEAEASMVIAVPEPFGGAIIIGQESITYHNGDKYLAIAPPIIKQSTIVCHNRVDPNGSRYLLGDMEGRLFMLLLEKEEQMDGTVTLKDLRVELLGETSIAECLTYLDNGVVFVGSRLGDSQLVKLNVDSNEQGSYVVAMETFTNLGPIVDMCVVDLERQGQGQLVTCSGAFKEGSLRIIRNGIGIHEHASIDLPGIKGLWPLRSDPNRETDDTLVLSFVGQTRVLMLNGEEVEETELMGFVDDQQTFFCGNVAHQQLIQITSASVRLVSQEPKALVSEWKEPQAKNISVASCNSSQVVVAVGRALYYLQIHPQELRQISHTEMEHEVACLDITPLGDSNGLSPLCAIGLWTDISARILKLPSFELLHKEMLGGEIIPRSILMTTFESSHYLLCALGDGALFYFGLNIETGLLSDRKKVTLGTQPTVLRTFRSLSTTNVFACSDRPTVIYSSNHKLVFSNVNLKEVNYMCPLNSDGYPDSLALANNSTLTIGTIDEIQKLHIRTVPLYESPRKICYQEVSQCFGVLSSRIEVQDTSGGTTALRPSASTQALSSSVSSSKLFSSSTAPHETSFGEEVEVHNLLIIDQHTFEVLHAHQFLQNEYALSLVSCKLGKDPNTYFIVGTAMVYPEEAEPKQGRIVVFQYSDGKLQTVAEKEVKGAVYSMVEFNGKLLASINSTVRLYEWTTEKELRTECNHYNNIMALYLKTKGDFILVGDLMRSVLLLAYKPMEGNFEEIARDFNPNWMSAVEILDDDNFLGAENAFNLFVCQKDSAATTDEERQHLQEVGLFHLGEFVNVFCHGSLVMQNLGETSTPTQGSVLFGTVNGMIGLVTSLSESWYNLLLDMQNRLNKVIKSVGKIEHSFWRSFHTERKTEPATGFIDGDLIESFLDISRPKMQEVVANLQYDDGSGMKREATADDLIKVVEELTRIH
UniProt O95865: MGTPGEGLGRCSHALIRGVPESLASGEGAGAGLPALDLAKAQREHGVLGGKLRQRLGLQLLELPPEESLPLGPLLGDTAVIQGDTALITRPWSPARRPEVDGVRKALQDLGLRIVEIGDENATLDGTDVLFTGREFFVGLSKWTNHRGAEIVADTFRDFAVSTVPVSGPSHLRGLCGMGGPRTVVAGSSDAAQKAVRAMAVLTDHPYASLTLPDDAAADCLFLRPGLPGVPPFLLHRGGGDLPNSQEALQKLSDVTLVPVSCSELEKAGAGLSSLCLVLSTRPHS
UniProt Q9NUI1: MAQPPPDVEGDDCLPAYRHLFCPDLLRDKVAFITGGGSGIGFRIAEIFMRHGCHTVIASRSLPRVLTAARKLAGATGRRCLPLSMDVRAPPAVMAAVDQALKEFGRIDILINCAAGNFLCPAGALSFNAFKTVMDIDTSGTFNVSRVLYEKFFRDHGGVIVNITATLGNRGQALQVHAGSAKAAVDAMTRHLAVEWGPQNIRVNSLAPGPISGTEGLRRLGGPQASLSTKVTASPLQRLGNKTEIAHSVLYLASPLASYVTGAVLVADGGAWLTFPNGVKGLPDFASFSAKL
UniProt Q9UJW0, whole entry, looked up: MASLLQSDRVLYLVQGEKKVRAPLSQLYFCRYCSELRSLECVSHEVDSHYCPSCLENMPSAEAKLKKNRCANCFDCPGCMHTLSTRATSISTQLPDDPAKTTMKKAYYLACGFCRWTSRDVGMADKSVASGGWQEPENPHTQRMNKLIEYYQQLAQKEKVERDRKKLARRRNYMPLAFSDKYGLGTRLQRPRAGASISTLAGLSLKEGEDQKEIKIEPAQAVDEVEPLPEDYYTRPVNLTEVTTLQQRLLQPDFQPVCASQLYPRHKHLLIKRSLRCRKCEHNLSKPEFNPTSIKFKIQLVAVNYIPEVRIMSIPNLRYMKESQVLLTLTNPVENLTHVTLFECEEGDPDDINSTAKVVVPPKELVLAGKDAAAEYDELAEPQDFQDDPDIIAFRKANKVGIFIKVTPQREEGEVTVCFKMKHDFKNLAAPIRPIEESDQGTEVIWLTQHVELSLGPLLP
UniProt P32321: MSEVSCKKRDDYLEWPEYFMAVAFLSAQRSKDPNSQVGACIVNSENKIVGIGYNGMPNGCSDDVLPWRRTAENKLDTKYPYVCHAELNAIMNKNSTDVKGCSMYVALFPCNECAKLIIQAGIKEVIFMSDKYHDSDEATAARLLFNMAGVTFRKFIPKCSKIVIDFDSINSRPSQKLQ
UniProt Q9NY93: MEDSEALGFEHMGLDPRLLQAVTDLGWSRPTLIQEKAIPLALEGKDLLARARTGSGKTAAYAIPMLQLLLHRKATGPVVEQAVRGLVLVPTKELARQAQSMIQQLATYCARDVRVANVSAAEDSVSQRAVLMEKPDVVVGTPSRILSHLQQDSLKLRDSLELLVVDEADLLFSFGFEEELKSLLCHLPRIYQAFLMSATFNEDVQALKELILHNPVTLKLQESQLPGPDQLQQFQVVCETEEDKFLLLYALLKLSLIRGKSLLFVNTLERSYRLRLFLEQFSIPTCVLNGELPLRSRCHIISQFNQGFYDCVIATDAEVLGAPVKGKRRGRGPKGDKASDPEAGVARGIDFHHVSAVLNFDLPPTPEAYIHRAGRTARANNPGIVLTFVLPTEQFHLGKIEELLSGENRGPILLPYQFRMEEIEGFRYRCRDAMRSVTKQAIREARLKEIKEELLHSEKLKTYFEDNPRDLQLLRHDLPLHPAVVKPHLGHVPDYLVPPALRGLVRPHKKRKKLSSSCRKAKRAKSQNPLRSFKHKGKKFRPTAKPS
UniProt Q7Z4W1: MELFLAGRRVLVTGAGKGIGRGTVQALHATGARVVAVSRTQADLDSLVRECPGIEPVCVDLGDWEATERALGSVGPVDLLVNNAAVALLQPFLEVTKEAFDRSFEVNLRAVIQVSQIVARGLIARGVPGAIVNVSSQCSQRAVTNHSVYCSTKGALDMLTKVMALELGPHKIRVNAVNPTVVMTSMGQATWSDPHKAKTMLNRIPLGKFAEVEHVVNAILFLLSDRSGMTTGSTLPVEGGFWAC
UniProt Q8TEB1, whole entry, looked up: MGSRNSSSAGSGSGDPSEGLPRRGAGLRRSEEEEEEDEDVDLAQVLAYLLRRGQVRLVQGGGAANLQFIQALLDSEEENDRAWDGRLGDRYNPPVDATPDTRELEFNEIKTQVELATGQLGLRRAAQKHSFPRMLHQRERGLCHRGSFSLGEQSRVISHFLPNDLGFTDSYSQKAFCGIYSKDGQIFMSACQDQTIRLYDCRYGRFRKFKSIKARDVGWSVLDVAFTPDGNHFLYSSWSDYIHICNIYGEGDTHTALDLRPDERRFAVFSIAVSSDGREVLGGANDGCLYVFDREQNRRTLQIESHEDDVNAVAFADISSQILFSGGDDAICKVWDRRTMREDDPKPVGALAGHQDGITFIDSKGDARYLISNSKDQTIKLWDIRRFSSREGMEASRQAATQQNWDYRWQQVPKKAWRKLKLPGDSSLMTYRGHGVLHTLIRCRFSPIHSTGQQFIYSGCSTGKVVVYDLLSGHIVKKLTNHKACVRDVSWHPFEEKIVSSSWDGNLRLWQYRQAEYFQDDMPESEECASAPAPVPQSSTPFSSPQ
UniProt Q8IWF6: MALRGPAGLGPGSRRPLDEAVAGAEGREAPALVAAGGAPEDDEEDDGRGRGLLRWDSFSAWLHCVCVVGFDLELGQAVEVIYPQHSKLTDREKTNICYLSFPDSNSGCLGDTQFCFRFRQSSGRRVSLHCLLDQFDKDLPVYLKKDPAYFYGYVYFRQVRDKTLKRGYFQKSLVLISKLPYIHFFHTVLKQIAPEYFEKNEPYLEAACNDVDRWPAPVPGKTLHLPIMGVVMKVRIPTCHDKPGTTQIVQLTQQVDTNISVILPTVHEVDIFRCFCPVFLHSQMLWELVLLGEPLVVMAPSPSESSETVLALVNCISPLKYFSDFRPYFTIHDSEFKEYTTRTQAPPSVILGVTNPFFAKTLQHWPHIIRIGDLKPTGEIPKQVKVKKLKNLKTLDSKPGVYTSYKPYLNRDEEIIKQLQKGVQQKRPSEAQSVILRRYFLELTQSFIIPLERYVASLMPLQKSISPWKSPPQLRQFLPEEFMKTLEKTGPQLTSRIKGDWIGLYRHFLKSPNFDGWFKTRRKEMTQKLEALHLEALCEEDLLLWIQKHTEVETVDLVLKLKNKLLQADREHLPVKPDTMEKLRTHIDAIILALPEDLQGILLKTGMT
UniProt Q9NV06: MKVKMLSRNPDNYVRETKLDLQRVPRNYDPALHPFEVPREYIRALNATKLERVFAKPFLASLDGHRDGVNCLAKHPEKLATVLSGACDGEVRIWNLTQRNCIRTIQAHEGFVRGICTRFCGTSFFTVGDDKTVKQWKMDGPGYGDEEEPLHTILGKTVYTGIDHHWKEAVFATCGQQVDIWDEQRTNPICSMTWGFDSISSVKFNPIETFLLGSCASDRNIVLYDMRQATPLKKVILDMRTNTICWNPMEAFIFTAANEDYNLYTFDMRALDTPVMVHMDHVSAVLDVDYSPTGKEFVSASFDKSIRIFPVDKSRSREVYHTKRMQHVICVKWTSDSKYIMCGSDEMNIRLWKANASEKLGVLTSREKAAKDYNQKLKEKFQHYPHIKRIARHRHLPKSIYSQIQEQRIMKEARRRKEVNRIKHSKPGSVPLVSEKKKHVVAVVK
UniProt Q66K64, whole entry, looked up: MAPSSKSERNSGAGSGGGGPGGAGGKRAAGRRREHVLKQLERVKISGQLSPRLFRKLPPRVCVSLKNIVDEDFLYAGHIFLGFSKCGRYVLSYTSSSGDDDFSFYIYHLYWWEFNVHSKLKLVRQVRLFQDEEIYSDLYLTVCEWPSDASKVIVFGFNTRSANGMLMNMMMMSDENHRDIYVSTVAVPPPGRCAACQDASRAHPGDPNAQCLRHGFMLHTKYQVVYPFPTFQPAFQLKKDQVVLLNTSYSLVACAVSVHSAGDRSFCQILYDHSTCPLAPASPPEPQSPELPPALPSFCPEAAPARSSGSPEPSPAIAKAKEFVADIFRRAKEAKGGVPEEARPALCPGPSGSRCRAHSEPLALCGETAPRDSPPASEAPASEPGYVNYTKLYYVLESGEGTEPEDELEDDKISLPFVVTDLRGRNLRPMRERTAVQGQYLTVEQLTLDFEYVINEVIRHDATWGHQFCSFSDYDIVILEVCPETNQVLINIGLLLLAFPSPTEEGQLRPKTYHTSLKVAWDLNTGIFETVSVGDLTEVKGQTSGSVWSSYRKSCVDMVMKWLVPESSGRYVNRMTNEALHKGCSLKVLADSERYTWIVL

compound: NC(=O)Nc1cc(-c2cccc(F)c2)sc1C(=O)N[C@H]1CCCNC1; experiment: log2 fold change, soluble protein after heating vs DMSO (PISA); higher = thermal stabilisation; K562 lysate, 10 uM; active = over 0.2 and 3.5 SD of the protein, either way, in both replicates (recomputed)
How it was run: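 Log-two fold change in thermal stability relative to solvent controls is reported from duplicates. For each sample, crude K562 extract from dounce-homogenised pellets in PBS pH 7.4 with 1 mM MgCl2, at 1 mg/mL protein, was treated with 10 μM compound for 30 min. Aliquots heated for 3 min across 48°C-58°C were pooled, brought to 0.5% NP-40 at 4°C and cleared at 21,000xg for 90 min. The supernatant was quantified by TMTpro 16plex LC-MS/MS with channel sums equalised.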

log2 fold change, inactive:
CYP24A1 (UniProt Q07973) 0.04, DAGLB (UniProt Q8NCG7) 0.059, DDX3X (UniProt O00571) 0.075, DDB1 (UniProt Q16531) -0.012, DEF6 (UniProt Q9H4E7) 0.067, DDAH2 (UniProt O95865) -0.052, DECR2 (UniProt Q9NUI1) -0.046, DDX18 (UniProt Q9NVP1) 0.038, DCTN4 (UniProt Q9UJW0) -0.046, DCTD isoform 2 (UniProt P32321) -0.035, DDX56 (UniProt Q9NY93) 0.018, DDX17 (UniProt Q92841) 0.004, DCXR (UniProt Q7Z4W1) -0.019, DCTN2 isoform 3 (UniProt Q13561) -0.053, DCP2 (UniProt Q8IU60) 0.014, DCAF11 (UniProt Q8TEB1) 0.022, DENND6A (UniProt Q8IWF6) 0.018, DCAF13 (UniProt Q9NV06) -0.015, DCAF15 (UniProt Q66K64) 0.081, DCAF4L2 (UniProt Q8NA75) 0.008, DCTN2 (UniProt Q13561) 0.053, DAZAP1 (UniProt Q96EP5) 0.005, DFFA isoform 2 (UniProt O00273) 0.065
